# Measurements from PubChem BioAssay AID1487 (National Center for Advancing Translational Sciences (NCATS), 2009).
# This is one part of the list. The main result of the screen is listed elsewhere. These columns were measured beside it and carry no call. Compounds called inactive in the main read-out are mostly missing here. Potencies come from curve fits of mixed quality, noted in brackets.
# Experiment: qHTS Assay for Modulators of Lamin A Splicing
# Conditions: HeLa LMNA splicing GFP/RFP minigene ratio, 48 h
# From the text: NCGC Assay Overview: Hutchinson-Gilford Progeria Syndrome (HGPS) is a pediatric premature aging disease caused by a spontaneous mutation in the lamin A/C (LMNA) gene. The mutation activates a cryptic splice site in the LMNA pre-mRNA which results in production of a pre-lamin A protein that cannot be processed properly. The mutant protein accumulates in the nucleus and negatively affects numerous cellular functions. Correction of the splicing defect in HGPS patient cells using a targeted oligonucleotide (exo11) leads to reversal of the cellular disease phenotypes. To identify small molecule modulators of aberrant LMNA splicing, a homogenous assay was constructed in HeLa cells that used a GFP containing minigene to report on correction of aberrant splicing in lamin A and a RFP (DsRed2) to report on cell viability, uniformity and nonspecific effects on the assay signal. This assay was adapted to laser-scanning microplate cytometry (Acumen, TTP Labtech) where miniaturization of the assay to a 1,536-well plate format was possible. References: Bowen, W. P.; Wylie, P. G. Application of Laser-Scanning Fluorescence Microplate Cytometry in High Content Screening. Assay Drug Dev Technol 2006;4:209-221. Scaffidi P, Misteli T. Reversal of the cellular phenotype in the premature aging disease Hutchinson-Gilford progeria syndrome. Nat.
# NCGC Assay Protocol Summary: Reagents/Controls: Stable clones expressing DsRed2 and lamin A-EGFP were generated by Cell and Molecular Technologies in S3 HeLa cells. HeLa cells were prepared for the assay when they were 70-90% confluent. The cells were counted and resuspended in Opti-MEM I (no phenol red; Gibco), 2% FBS, 1% penicillin/ streptomycin (Gibco) at concentration of 120 cells/uL concentration. The suspension was passed through a Falcon basket filter with pore size 40um (Beckton Dickson). Control titrations: column […] 1536-well plate contained a sixteen point titration (1:2 dilutions) in duplicate of ancitabine (Sigma: A8598) beginning at 40 uM final concentration. Column 2 contained a sixteen point titration (1:2 dilutions) of cycloheximide beginning at 1.4 mM final concentration. Column 3 contained ancitabine at 40 uM and column 4 contained was the vehicle control (0.5% DMSO final concentration). Assay Steps: 5 uL of HeLa cells were plated in Aurora LoBase black clear bottom (cyclic-olefin polymer) 1536-well plates at a final density of 600 cells/well. Controls and library compounds were added with a 1536-well pin array using the Kalypsys pin-tool. The plates were then incubated for 48 hrs in a cell-culture incubator (37 °C; 5% CO2, 98% humidity). Following incubation the plates were read on the Acumen Explorer using the 488 nm laser. Data was collected on objects between 10 and 100 um in size. Cell objects were defined by a 15 um width x 10 um depth filter. The ratio of the total object intensity in PMT1 (500-530 nm emission; GFP) over PMT3 (575-640 nm emission; RFP) was calculated for analysis. Keywords: NIH Roadmap, MLSCN, MLI, MLSMR, qHTS, NCGC, lamin A, Progeria, RNA splicing.
# [1] = measured here: GFP splicing reporter channel
# [2] = measured here: RFP viability control channel
SMILES,AC50 [1],AC50 [2]
c1ccc(CNc2nc(-c3cccnc3)nc3ccccc23)cc1,"12.6 µM [falling, partial curve, poor fit]","17.8 µM [falling, partial curve]"
COc1cccc2c1CCC(NC(C)=O)C2=O (stereo not drawn),,"11.2 µM [rising, partial curve, poor fit]"
CCC(C)(C)n1nnnc1C(c1cccc(C#N)c1)N1CCN(c2cccc(C)c2C)CC1 (stereo not drawn),"12.6 µM [rising, single point]",
CC1CCCCC1NC(=O)CN1C(=O)CSc2cc(S(=O)(=O)N3CCCCCC3)ccc21 (stereo not drawn),"5.62 µM [rising, partial curve]","7.94 µM [rising, partial curve]"
CCOc1ccccc1CNC(=O)c1cc2c(=O)n(Cc3ccco3)ccc2nc1C,"0.00316 µM [rising, full curve]","8.91 µM [rising, partial curve, poor fit]"
Nc1ccc(-c2nc3c(Cl)cc(N)cc3[nH]2)cc1,,"35.5 µM [rising, single point]"
Cc1cc(N=Cc2c(O)n(-c3ccc(C)c(C)c3)c(=O)c3ccccc23)no1,,"3.16 µM [rising, full curve]"
COc1ccccc1NS(=O)(=O)c1cc(NC(=O)Cn2cnc3c2c(=O)n(C)c(=O)n3C)ccc1C,"2 µM [rising, partial curve, poor fit]","12.6 µM [rising, partial curve, poor fit]"
Cc1cc(C)c(C(=O)/C=C/c2cccc3ccccc23)c(=O)[nH]1,"2.82 µM [falling, partial curve]","3.16 µM [falling, single point]"
CC(C)(C)c1cc(C(=O)N2CCN(c3ncccn3)CC2)ccn1,"12.6 µM [rising, single point]","31.6 µM [rising, single point]"
Cc1ccc(OCC(=O)Nc2nnc(SCc3cc(=O)n4cccc(C)c4n3)s2)cc1,"0.501 µM [rising, single point]","0.631 µM [rising, single point]"
COc1cccc(N2CCN(Cc3nnnn3C3CCCCC3)CC2)c1,"0.0224 µM [falling, full curve, poor fit]",
Cc1cc(C(=O)CSc2nnc(-c3cccs3)o2)c(C)n1-c1ccccc1,,"11.2 µM [rising, partial curve, poor fit]"
COc1ccc(NC(=O)Cn2nnc(-c3ccc(CN4CCOCC4)cc3)n2)c(OC)c1,"11.2 µM [rising, partial curve]",
O=C(O)c1cc(S(=O)(=O)Nc2ccc(N3CCCCC3)cc2)ccc1Cl,"0.355 µM [rising, full curve, poor fit]","0.447 µM [rising, partial curve, poor fit]"
O=c1c(Cc2ccc(F)cc2)c(O)ccn1Cc1ccc(Cl)cc1Cl,"22.4 µM [rising, single point]",
Cc1[nH]c2ccccc2c1CCN(Cc1cccnc1)C(=S)Nc1cccc(F)c1,"0.0282 µM [falling, single point]",
C=CCNC(=S)N/N=C/c1cccc([N+](=O)[O-])c1,,"3.16 µM [falling, partial curve]"
C=Cc1c(C)/c2[n-]/c1=C\c1[n-]c(c(CC)c1C)/C=c1\[n-]c3c(c1C)C(=O)C(C(=O)[O-])C=3c1[n-]c(c(C)c1CCC(=O)[O-])\C=2.[Cu].[Na+].[Na+] (stereo not drawn),,"0.794 µM [rising, single point]"
COc1ccccc1S(=O)(=O)Cc1ccc(C(=O)N2CCN(c3ccccc3)CC2)o1,,"3.98 µM [rising, partial curve, poor fit]"
COc1ccc(N2CCN(C(=O)c3cccnc3)CC2)c([N+](=O)[O-])c1,"0.447 µM [rising, full curve, poor fit]",
O=[N+]([O-])/C(=C\Nc1ccccc1Cl)S(=O)(=O)c1ccccc1,"1.78 µM [falling, partial curve, poor fit]","2 µM [falling, partial curve, poor fit]"
COc1cc(/C=N/NC(=O)c2[nH]nc3c2CCc2ccccc2-3)ccc1O,"35.5 µM [rising, single point]","35.5 µM [rising, single point]"
CCN(C(=S)Nc1cc(S(=O)(=O)N2CCOCC2)ccc1Cl)c1cccc2ccccc12,"4.47 µM [rising, full curve, poor fit]","5.01 µM [rising, full curve, poor fit]"
C=CCc1ccc(OCCOCCOc2cccc3cccnc23)c(OC)c1,,"12.6 µM [rising, single point]"
C[N+](C)(C)CCC(=O)c1cccc2ccccc12,"2.24 µM [falling, full curve]","2.51 µM [falling, full curve]"
CCn1c(C)cc2c(c1=O)C(c1ccccc1)C(C(=O)OC)=C(N)O2 (stereo not drawn),,"35.5 µM [rising, single point]"
CCN(CC)c1ccc(S(=O)(=O)N(CC)CC)cc1NC(=O)c1cccnc1,"35.5 µM [falling, partial curve, poor fit]",

SMILES,AC50 [1],AC50 [2]
CC(C)C(C)(C#N)NC(=O)CSc1ncnc2sc(-c3ccccc3)cc12 (stereo not drawn),,"20 µM [rising, single point]"
O=C(Nc1ccccc1Br)c1cc(S(=O)(=O)NC2CCCCC2)ccc1F,"15.8 µM [falling, partial curve]","1.41 µM [falling, full curve]"
CCOc1ccccc1NC(=O)C(Sc1ccccc1)c1ccccc1 (stereo not drawn),"7.08 µM [rising, single point]","15.8 µM [rising, single point]"
C=CCc1cccc2cc(-c3nc4ccc(C(=O)O)cc4[nH]3)c(=O)oc12,"0.794 µM [rising, partial curve]",
COc1ccc2cc(CN(C(=O)Nc3ccccc3OC)C3CCCC3)c(=O)[nH]c2c1,,"25.1 µM [rising, single point]"
COc1ccc(C)cc1Nc1cc(C)nc2nc(C)nn12,,"1.26 µM [rising, partial curve]"
Cc1ccc(C(C(=O)NC2CCCC2)N(C(=O)Cc2cccs2)c2ccc(C)c(C)c2)o1 (stereo not drawn),,"31.6 µM [rising, single point]"
Cc1c(C(=O)Nc2nc3ccccc3[nH]2)oc2ccccc12,,"11.2 µM [rising, single point]"
Brc1ccc(Nc2c3c(nc4ncnn24)CCC3)cc1,,"12.6 µM [rising, partial curve, poor fit]"
COc1ccc(-c2nc(CN3CCCCC3c3nccn3C)c(C)o2)c(C)c1C (stereo not drawn),,"8.91 µM [rising, single point]"
O=C(Nc1cccc2ccccc12)c1ccc([N+](=O)[O-])s1,"17.8 µM [falling, single point]","35.5 µM [falling, single point]"
Cc1ccc(-c2noc(CN(C(=O)CCCCCN3C(=O)c4ccccc4C3=O)C(C)C)n2)cc1,"12.6 µM [rising, partial curve]","22.4 µM [rising, single point]"
Cc1ccc(S(=O)(=O)Nc2ccccc2CNc2ncc(Br)cc2Br)cc1,"35.5 µM [rising, single point]",
CCOc1ccc(CNC(=O)CN2N=C(c3ccccc3)CCC2=O)cc1OC,"3.98 µM [rising, partial curve, poor fit]",
Cc1cccc(N2CCN(CC(=O)Nc3nccs3)CC2)c1C,,"12.6 µM [rising, single point]"
O=C(NC(NC(=S)Nc1ccccc1Cl)C(Cl)(Cl)Cl)c1cccc(Cl)c1 (stereo not drawn),"35.5 µM [falling, single point]",
O=[N+]([O-])c1ccc(NC(=S)N2CCN(c3ccccc3)CC2)cc1,,"31.6 µM [rising, single point]"
CCc1ccc(NC(=O)C2CCN(S(=O)(=O)c3cccc(-c4noc(C)n4)c3)CC2)cc1,,"2.82 µM [falling, full curve, poor fit]"
Cc1ccc(Cn2c(CNC(=O)c3ccc(Cl)c([N+](=O)[O-])c3)nc3cccnc32)cc1,"3.98 µM [falling, full curve, poor fit]","3.98 µM [falling, full curve, poor fit]"
CCCCOC(=O)C[N+](C)(C)CCOC1CC2CCC1(C)C2(C)C (stereo not drawn),,"22.4 µM [rising, single point]"
CCOc1ccc(S(=O)(=O)Nc2cc(Cl)ccc2O)cc1,"35.5 µM [falling, single point]",
CCOc1ccc(C2C(C#N)=C(C)NC3=C2C(=O)c2ccccc23)cc1 (stereo not drawn),,"35.5 µM [rising, single point]"
O=C(Nc1nc(-c2ccco2)c(-c2ccco2)s1)C1CCC1,"31.6 µM [rising, single point]","12.6 µM [rising, partial curve, poor fit]"
CCN(CC)C(=O)NC1CCCCCCC1,"0.1 µM [rising, full curve, poor fit]",
Cc1ccc2cc(CN(CCCO)S(=O)(=O)c3cccc4nsnc34)c(=O)[nH]c2c1C,,"35.5 µM [rising, single point]"
COc1ccc(-c2c(C)[nH]n3c(=O)c(Cc4ccccc4)c(C)nc23)cc1OC,,"35.5 µM [rising, single point]"
COc1cccc([C@@H]2Oc3ccc(Br)cc3C(=O)[C@H]2OC(=O)NC2CCCC2)c1,,"25.1 µM [rising, partial curve]"

# 3 entries from above, arranged by formula weight, smallest number first:
SMILES,AC50 [1],AC50 [2]
Cc1c(C(=O)Nc2nc3ccccc3[nH]2)oc2ccccc12,,"11.2 µM [rising, single point]"
O=[N+]([O-])c1ccc(NC(=S)N2CCN(c3ccccc3)CC2)cc1,,"31.6 µM [rising, single point]"
O=C(Nc1ccccc1Br)c1cc(S(=O)(=O)NC2CCCCC2)ccc1F,"15.8 µM [falling, partial curve]","1.41 µM [falling, full curve]"
